Laboratory results from PubChem BioAssay AID330 (DTP/NCI, 2004).
The list is a part of this screen's results and no random one: it is rich in T/C values a quarter to a half above the control, in often repeated tests (any T/C) and in doses without a T/C. Other doses and runs of a compound stand elsewhere. T/C: endpoint of the treated group in % of that of the vehicle group. Some doses have a count of surviving animals in place of a T/C: the source holds a T/C of zero for them, seemingly a mark for toxic or unscored doses. Some doses without a T/C left all or most animals alive at the check, yet need not have been tolerated: the source hardly ever lists a survival T/C far under the control, and the zero likely stands for such cases as well. Counts of survivors are from the toxicity check (mostly the fifth day) where no day follows; animals may have died later. Schedule codes are those of the source, read here as Q, the interval in days (D) or hours (H), X, the number of doses. For survival time, this PubChem deposit counts one and a half times the control or more as active, and values a quarter to a half above the control carry no call in these data; other NCI protocols may use other cut-offs. Some doses were run more than once; the results are listed from low to high. Some T/C values are followed by the survivors on the day toxicity was checked, most often the fifth; where none is given, no animal had died by that day.

Test system: P388 leukemia ip, CD2F1 mice, survival T/C
Experiment: NCI In Vivo Anticancer Drug Screen. Data for tumor model P388 Leukemia (intraperitoneal) in CD2F1 (CDF1) mice
Conditions: T/C endpoint: median survival time, higher T/C = longer survival
[1] = dose: 100.0 mg/kg/injection, schedule: Q01DX005 (ip), vehicle: saline with Tween-80
[2] = dose: 200.0 mg/kg/injection, schedule: Q01DX005 (ip), vehicle: saline with Tween-80
[3] = dose: 50.0 mg/kg/injection, schedule: Q01DX009 (ip), vehicle: saline
[4] = dose: 100.0 mg/kg/injection, schedule: Q01DX009 (ip), vehicle: saline
[5] = dose: 200.0 mg/kg/injection, schedule: Q01DX009 (ip), vehicle: saline
[6] = dose: 240.0 mg/kg/injection, schedule: Q01DX005 (ip), vehicle: saline with Tween-80

For `COCC(O)Cn1ccnc1[N+](=O)[O-]` (stereo unspecified), the T/C (dose: 4.0 mg/kg/injection, schedule: Q01DX009 (ip), vehicle: saline + alcohol) was 127 % of control, the T/C (dose: 8.0 mg/kg/injection, schedule: Q01DX009 (ip), vehicle: saline + alcohol) was 127 % of control and the T/C (dose: 16.0 mg/kg/injection, schedule: Q01DX009 (ip), vehicle: saline + alcohol) was 126 % of control. For the same compound, the T/C (dose: 32.0 mg/kg/injection, schedule: Q01DX009 (ip), vehicle: saline + alcohol) was 127 % of control and the T/C (dose: 512.0 mg/kg/injection, schedule: Q01DX009 (ip), vehicle: saline + alcohol) was 127 % of control [5 of 6 alive].

With `CC(C)(C)OC(=O)NCC(=O)ON1C(=O)CCC1=O` the survivor count (dose: 200.0 mg/kg/injection, schedule: Q01DX009 (ip), vehicle: saline with Tween-80) was 6 of 6.

`COc1cc(NCCCN=C(N)N)c2ncccc2c1` was tested, and the survivor count (dose: 12.5 mg/kg/injection, schedule: Q01DX005 (ip), vehicle: saline with Tween-80) was 3 of 5, the survivor count (dose: 25.0 mg/kg/injection, schedule: Q01DX005 (ip), vehicle: saline with Tween-80) was 0 of 5 and the survivor count (dose: 50.0 mg/kg/injection, schedule: Q01DX005 (ip), vehicle: saline with Tween-80) was 0 of 5. The survivor count [1] was 0 of 5 and the survivor count [2] was 0 of 5.

For `NC(CCCCNC(=S)S)C(=O)O.[Na+].[Zn+2]` (stereo unspecified), the T/C (dose: 200.0 mg/kg/injection, schedule: Q01DX005 (ip), vehicle: Klucel (hydroxypropylcellulose) (HPC)) was 126 and 127 % of control, the survivor count (dose: 400.0 mg/kg/injection, schedule: Q01DX005 (ip), vehicle: Klucel (hydroxypropylcellulose) (HPC)) was 1 of 6 and the survivor count (dose: 600.0 mg/kg/injection, schedule: Q01DX005 (ip), vehicle: Klucel (hydroxypropylcellulose) (HPC)) was 0 of 6.

With `CSc1nc(C)c(C(=O)CCN2CCN(c3ccccn3)CC2)s1` the survivor count (dose: 240.0 mg/kg/injection, schedule: Q01DX005 (ip), vehicle: saline) was 3 of 6.

For `CC(=O)c1ccc2oc(C(C)=O)cc2c1`, the survivor count (dose: 10.0 mg/kg/injection, schedule: Q01DX009 (ip), vehicle: saline with Tween-80) was 6 of 6.

With `C=[CH][Sn](=[O])[CH]=C` the survivor count [3] was 6 of 6.

`CC(C)[CH2][Ge]([Cl])([Cl])[Cl]` was tested, and the survivor count (dose: 12.5 mg/kg/injection, schedule: Q01DX009 (ip), vehicle: saline) was 3 of 6, the survivor count (dose: 25.0 mg/kg/injection, schedule: Q01DX009 (ip), vehicle: saline) was 2 of 6 and the survivor count [3] was 0 of 6. The survivor count [4] was 0 of 6 and the survivor count [5] was 0 of 6.

In the case of `N=C(N)c1ccc(OCCCCOc2ccc(N)cc2Cl)cc1`, the survivor count (dose: 120.0 mg/kg/injection, schedule: Q01DX005 (ip), vehicle: saline with Tween-80) is reported as 4 of 6 and the survivor count [6] is reported as 0 of 6.

In the case of `CCn1c(=O)c2cn[nH]c2n(CC)c1=O`, the survivor count (dose: 200.0 mg/kg/injection, schedule: Q01DX009 (ip), vehicle: Klucel (hydroxypropylcellulose) (HPC)) is reported as 2 of 6.

With `CC(C)(C)C(O)c1cccnc1` (stereo unspecified) the survivor count (dose: 400.0 mg/kg/injection, schedule: Q04DX003 (ip), vehicle: saline with Tween-80) was 5 of 6.

With `Nc1c2c(=O)[nH]c(O)cc2nn1-c1ccccc1` the survivor count [1] was 2 of 6 and the survivor count [2] was 0 of 6.

`CN1CCOC(c2ccccc2)c2ccsc2CC1` (stereo unspecified) was tested, and the survivor count [6] was 2 of 6.

With `ClCCN(CCCl)c1ccc(CCN2CCOCC2)cc1` the survivor count [4] was 6 of 6 and the survivor count [5] was 0 of 6.

For `CCC[As](CCC)SC1OC(C2COC(C)(C)O2)C2OC(C)(C)OC12` (stereo unspecified), the survivor count (dose: 50.0 mg/kg/injection, schedule: Q01DX009 (ip), vehicle: distilled water + Tween-80) was 0 of 6, the survivor count (dose: 100.0 mg/kg/injection, schedule: Q01DX009 (ip), vehicle: distilled water + Tween-80) was 0 of 6 and the survivor count (dose: 200.0 mg/kg/injection, schedule: Q01DX009 (ip), vehicle: distilled water + Tween-80) was 0 of 6.

In the case of `O=S(=O)(/C=C/c1cccnc1)/C=C/c1cccnc1`, the survivor count (dose: 100.0 mg/kg/injection, schedule: Q01DX009 (ip), vehicle: saline with Tween-80) is reported as 3 of 6.

`O=C(O)C(S)Cc1cnc[nH]1` (stereo unspecified) was tested, and the survivor count (dose: 400.0 mg/kg/injection, schedule: Q04DX002 (ip), vehicle: saline) was 6 of 6.
